The values below come from paper PMC5789822.

No constants are given. Whether binding was seen depends on the method and setting. Some entries that bind do so weakly or less than the wild type. For some assays here: Where a sequence is shown, tags or fusion partners need not be part of it.

One assay deals with T1, Gas6, Q14393.
T1 chain: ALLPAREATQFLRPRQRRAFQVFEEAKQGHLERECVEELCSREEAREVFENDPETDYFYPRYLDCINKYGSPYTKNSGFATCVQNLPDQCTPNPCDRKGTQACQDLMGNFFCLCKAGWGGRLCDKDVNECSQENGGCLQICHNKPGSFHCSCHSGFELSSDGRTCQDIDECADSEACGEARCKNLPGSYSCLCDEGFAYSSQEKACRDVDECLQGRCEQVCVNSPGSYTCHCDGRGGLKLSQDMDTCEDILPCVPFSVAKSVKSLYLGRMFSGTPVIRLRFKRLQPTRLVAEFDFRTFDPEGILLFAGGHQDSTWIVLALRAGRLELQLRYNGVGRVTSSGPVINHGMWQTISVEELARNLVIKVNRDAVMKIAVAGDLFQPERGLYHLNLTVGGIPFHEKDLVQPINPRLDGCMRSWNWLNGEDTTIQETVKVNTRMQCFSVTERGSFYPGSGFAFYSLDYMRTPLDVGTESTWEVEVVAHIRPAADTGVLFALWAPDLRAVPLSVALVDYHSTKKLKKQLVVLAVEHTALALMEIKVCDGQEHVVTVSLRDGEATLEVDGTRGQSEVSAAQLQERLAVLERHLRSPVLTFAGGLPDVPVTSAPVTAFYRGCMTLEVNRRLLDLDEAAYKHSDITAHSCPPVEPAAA
Kind of assay: SPR; Biacore T100; anti-Gas6 antibody immobilised, Gas6 captured, PGRN (or BDNF) injected at 10 ul/min; both purified. The following applies: remark: other sources report otherwise. A general note: In SPR one partner is held on a chip, and binding of the other changes the refractive index at the surface.

A further assay has as its target T2, GST-Gas6, Q14393.
T2 chain: T1 chain
Kind of assay: pull-down; His-PGRN and GST-Gas6 mixed in HBS-EP with 1.5 mM CaCl2, 4 °C for 6 h; pulled down with Ni-NTA agarose or glutathione-Sepharose, washed five times with PBS; both purified. The following applies: remark: other sources report otherwise.

B1: full-length PGRN, P28799 18-593 (protein)
chain: TRCPDGQFCPVACCLDPGGASYSCCRPLLDKWPTTLSRHLGGPCQVDAHCSAGHSCIFTVSGTSSCCPFPEAVACGDGHHCCPRGFHCSADGRSCFQRSGNNSVGAIQCPDSQFECPDFSTCCVMVDGSWGCCPMPQASCCEDRVHCCPHGAFCDLVHTRCITPTGTHPLAKKLPAQRTNRAVALSSSVMCPDARSRCPDGSTCCELPSGKYGCCPMPNATCCSDHLHCCPQDTVCDLIQSKCLSKENATTDLLTKLPAHTVGDVKCDMEVSCPDGYTCCRLQSGAWGCCPFTQAVCCEDHIHCCPAGFTCDTQKGTCEQGPHQVPWMEKAPAHLSLPDPQALKRDVPCDNVSSCPSSDTCCQLTSGEWGCCPIPEAVCCSDHQHCCPQGYTCVAEGQCQRGSEIVAGLEKMPARRASLSHPRDIGCDQHTSCPVGQTCCPSLGGSWACCQLPHAVCCEDRQHCCPAGYTCNVKARSCEKEVVSAQPATFLARSPHVGVKDVECGEGHFCHDNQTCCRDNRQGWACCPYRQGVCCADRRHCCPAGFRCAARGTKCLRREAPRWDAPLRDPALRQLL
For B1, the binding result with Gas6, Q14393 is listed as “binds”; with GST-Gas6, Q14393, “binds”.
